Assay results taken from PMC10053710, “Influence of Lipidation Pattern of the KR12 Fragment of Peptide LL-37 on Its Antibacterial and Hemolytic Activities” (International Journal of Molecular Sciences, 2023).
Where a SMILES comes first, the peptide text is derived from it. Where no end group is shown, it is not given here. The star is where a group is joined. Benzoyl(4-Ph) = O=C(c1ccc(-c2ccccc2)cc1)*; PhAc = O=C(Cc1ccccc1)*; Bz = O=C(c1ccccc1)*

Legend:
[1] = calculated from MHC5 (hRBCs) and MIC
[2] = test system: reference strains of Staphylococcus aureus; type: cell-based; details: selectivity index, hRBC MHC5 over GM of MIC against S. aureus strains
Procedure: Selectivity indexes were calculated based on the MHC5 and geometric mean (GM) of MIC values against S. aureus strains.
Tests of the antibacterial activity were carried out as we just described. Briefly, for assays, the following strains of ESKAPE bacteria were chosen: Acinetobacter baumannii ATCC BAA-1605, Enterococcus faecium ATCC 700221, Klebsiella aerogenes ATCC 13048 (formerly Enterobacter aerogenes), Klebsiella pneumoniae ATCC 700603, and Pseudomonas aeruginosa ATCC 9027. Moreover, the reference strains of Staphylococcus aureus were used: S. aureus ATCC 25923, S. aureus ATCC 6538, S. aureus ATCC 33591 (MRSA), S. aureus ATCC 9144, and S. aureus ATCC 12598. Before experiments, all the strains were stored at −80 °C in Roti®-Store cryo vials (Carl Roth GmbH, Karlsruhe, Germany). To evaluate the activity of the compounds, bacteria were transferred into fresh Mueller–Hinton medium (Becton Dickinson, Warszawa, Poland) and incubated for 24 h at 37 °C. In the next step, bacterial inoculums were seeded on Mueller–Hinton agar plates (BioMaxima SA, Lublin, Poland) and incubated again for 24 h. The MIC values were determined using the broth microdilution method according to the Clinical and Laboratory Standards Institute Protocol. […] The results were read after incubation for 18 h at 37 °C. […]

[3] = test system: Klebsiella aerogenes ATCC 13048; type: cell-based; details: calculated from MHC5 (hRBCs) and MIC
Procedure: (§1) Tests of the antibacterial activity were carried out as we just described. Briefly, for assays, the following strains of ESKAPE bacteria were chosen: Acinetobacter baumannii ATCC BAA-1605, Enterococcus faecium ATCC 700221, Klebsiella aerogenes ATCC 13048 (formerly Enterobacter aerogenes), Klebsiella pneumoniae ATCC 700603, and Pseudomonas aeruginosa ATCC 9027. Moreover, the reference strains of Staphylococcus aureus were used: S. aureus ATCC 25923, S. aureus ATCC 6538, S. aureus ATCC 33591 (MRSA), S. aureus ATCC 9144, and S. aureus ATCC 12598. Before experiments, all the strains were stored at −80 °C in Roti®-Store cryo vials (Carl Roth GmbH, Karlsruhe, Germany). To evaluate the activity of the compounds, bacteria were transferred into fresh Mueller–Hinton medium (Becton Dickinson, Warszawa, Poland) and incubated for 24 h at 37 °C. In the next step, bacterial inoculums were seeded on Mueller–Hinton agar plates (BioMaxima SA, Lublin, Poland) and incubated again for 24 h. The MIC values were determined using the broth microdilution method according to the Clinical and Laboratory Standards Institute Protocol. The initial inoculums of bacteria (0.5 × 10^5 colony forming units (CFU)/mL) prepared in Mueller–Hinton broth were exposed to the ranging concentrations of peptides (1–512 µg/mL). The experiments were conducted on 96-well microtiter plates, with a final volume of 100 µL. The inoculum densities were checked spectrophotometrically (Multiskan™ GO Microplate Spectrophotometer, Thermo Scientific, Waltham, MA, USA) at 600 nm. The results were read after incubation for 18 h at 37 °C. The MIC values were the lowest concentration at which a visible growth of microorganisms was inhibited. All experiments were conducted in triplicate. Moreover, positive (growth) and negative (sterility) controls were included.

[4] = test system: Pseudomonas aeruginosa ATCC 9027; type: cell-based; details: calculated from MHC5 (hRBCs) and MIC
Procedure: as §1

[5] = test system: Enterococcus faecium ATCC 700221; type: cell-based; details: calculated from MHC5 (hRBCs) and MIC
Procedure: as §1

[6] = test system: Klebsiella pneumoniae ATCC 700603; type: cell-based; details: calculated from MHC5 (hRBCs) and MIC
Procedure: as §1

Molecule | Selectivity index A. baumannii [1] | SI (MHC5/GM) [2] | Selectivity index K. aerogenes [3] | Selectivity index P. aeruginosa [4] | Selectivity index E. faecium [5] | Selectivity index K. pneumoniae [6]
CC[C@H](C)[C@H](NC(=O)[C@H](CCCNC(=N)N)NC(=O)[C@H](CCC(N)=O)NC(=O)[C@@H](NC(=O)[C@@H](NC(=O)[C@H](CCCNC(=N)N)NC(=O)[C@H](CCCCN)NC(=O)c1ccccc1)[C@@H](C)CC)C(C)C)C(=O)N[C@@H](CCCCN)C(=O)N[C@@H](CC(=O)O)C(=O)N[C@@H](Cc1ccccc1)C(=O)N[C@@H](CC(C)C)C(=O)N[C@@H](CCCNC(=N)N)C(N)=O [XV, Benzoic acid-KR12-NH2] (Bz-KRIVQRIKDFLR-NH2) | 16 | ≥16 | 8 | 4 | 64 | 8
CC[C@H](C)[C@H](NC(=O)[C@H](CCCNC(=N)N)NC(=O)[C@H](CCC(N)=O)NC(=O)[C@@H](NC(=O)[C@@H](NC(=O)[C@H](CCCNC(=N)N)NC(=O)[C@H](CCCCN)NC(=O)Cc1ccccc1)[C@@H](C)CC)C(C)C)C(=O)N[C@@H](CCCCN)C(=O)N[C@@H](CC(=O)O)C(=O)N[C@@H](Cc1ccccc1)C(=O)N[C@@H](CC(C)C)C(=O)N[C@@H](CCCNC(=N)N)C(N)=O [XVI, Phenylacetic acid-KR12-NH2] (PhAc-KRIVQRIKDFLR-NH2) | 8 | 6.06 | 4 | 2 | 32 | 4
CC[C@H](C)[C@H](NC(=O)[C@H](CCCNC(=N)N)NC(=O)[C@H](CCC(N)=O)NC(=O)[C@@H](NC(=O)[C@@H](NC(=O)[C@H](CCCNC(=N)N)NC(=O)[C@H](CCCCN)NC(=O)c1ccc(-c2ccccc2)cc1)[C@@H](C)CC)C(C)C)C(=O)N[C@@H](CCCCN)C(=O)N[C@@H](CC(=O)O)C(=O)N[C@@H](Cc1ccccc1)C(=O)N[C@@H](CC(C)C)C(=O)N[C@@H](CCCNC(=N)N)C(N)=O [XXI, 4-Phenylbenzoic acid-KR12-NH2] ({Benzoyl(4-Ph)}-KRIVQRIKDFLR-NH2) | 4 | – | 8 | 2 | 16 | 4
KRIVQRIKDFLR-NH2 [I, KR12-NH2] | 2 | – | 1 | 4 | 4 | 1
